PubChem BioAssay AID1508597 | Cure First | 2020

Test: 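Knock-downs altering ovarian cancer cell survival with or without PARP inhibitor rucaparib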 (primary screen)
Cells: human ovarian carcinoma lines grown from tumours: OCI-P5x (papillary serous) and OCI-C5x (clear cell)
Reagents: siRNA pool against human genes, 1.25 pmol siRNA per well
Timing: 72 h or 96 h, depending on the cell culture
Challenge: rucaparib 20 µM (about IC30) or vehicle, present until read-out
Rucaparib or vehicle: Rucaparib
Cell line: OCI-P5x (serous)
Detection: 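ATP luminescence measured at 72 or 96 h according to the culture, then normalised and expressed as percent viability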
Scale: viability, normalised: higher = more viable cells remaining
Active means: 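a well counts as a hit if its normalised viability is under 80 percent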
Meaning of the calls: active = viability under 80%; inactive = viability 80% or more
This is a random part of the about 2,100 reagents, in one setting of the screen. 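Calls flag viability under 80% in either arm, not effects specific to rucaparib; the reference for percent is not stated.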 Some reagents were tested in more than one well and are listed for each. Not given: the 100% reference.

| target gene | technical replicate | viability, normalised (%) | call |
| --- | --- | --- | --- |
| PDE11A | 1 | 67.5 | active |
| PDE11A | 2 | 77.5 | active |
| PDE11A | 3 | 64.8 | active |
| CTPS1 | 1 | 44.6 | active |
| CTPS1 | 2 | 43.3 | active |
| CTPS1 | 3 | 59 | active |
| TRPM7 | 1 | 96.9 | inactive |
| TRPM7 | 2 | 91.2 | inactive |
| TRPM7 | 3 | 75.1 | active |
| APBB1 | 1 | 63.8 | active |
| APBB1 | 2 | 48.4 | active |
| APBB1 | 3 | 56.2 | active |
| ZCWPW2 | 1 | 43.6 | active |
| ZCWPW2 | 2 | 19.4 | active |
| ZCWPW2 | 3 | 43.9 | active |
| RCOR3 | 1 | 64.3 | active |
| RCOR3 | 2 | 59 | active |
| RCOR3 | 3 | 66.4 | active |
| PDE3A | 1 | 59.2 | active |
| PDE3A | 2 | 50.4 | active |
| PDE3A | 3 | 51.6 | active |
| AGRN | 1 | 57.8 | active |
| AGRN | 2 | 61.6 | active |
| AGRN | 3 | 64.7 | active |
| MNAT1 | 1 | 101 | inactive |
| MNAT1 | 2 | 112 | inactive |
| MNAT1 | 3 | 90.4 | inactive |
| BLNK | 1 | 37.8 | active |
| BLNK | 2 | 47 | active |
| BLNK | 3 | 50.1 | active |
| CHRAC1 | 1 | 76.9 | active |
| CHRAC1 | 2 | 84.1 | inactive |
| CHRAC1 | 3 | 71.4 | active |
| POLR2I | 1 | 78 | active |
| POLR2I | 2 | 84.3 | inactive |
| POLR2I | 3 | 79.8 | active |
| ITGB5 | 1 | 57.6 | active |
| ITGB5 | 2 | 53.2 | active |
| ITGB5 | 3 | 61.6 | active |
| MED13 | 1 | 67 | active |
| MED13 | 2 | 51.8 | active |
| MED13 | 3 | 66.7 | active |
| PTK7 | 1 | 46.7 | active |
| PTK7 | 2 | 44.9 | active |
| PTK7 | 3 | 64.9 | active |
| KPNA3 | 1 | 87.2 | inactive |
| KPNA3 | 2 | 88.4 | inactive |
| KPNA3 | 3 | 73 | active |
| CASP3 | 1 | 85.9 | inactive |
| CASP3 | 2 | 96.2 | inactive |
| CASP3 | 3 | 97.8 | inactive |
| BMPR1A | 1 | 86 | inactive |
| BMPR1A | 1 | 56.3 | active |
| BMPR1A | 2 | 59.1 | active |
| BMPR1A | 2 | 77.1 | active |
| BMPR1A | 3 | 91.5 | inactive |
| BMPR1A | 3 | 62.7 | active |

Laid out differently: entries from further up
target gene | technical replicate | viability, normalised (%) | call
PDE11A | 3 | 64.8 | active
CTPS1 | 1 | 44.6 | active
CTPS1 | 2 | 43.3 | active
